Reference: publication PMC11172339
No constants are given. Whether binding was seen depends on the method and setting. Binding seen in cells or lysates may run through a third protein. Some binding calls cover weakened binding; strength is not graded here.

The chains behind the UniProt entries cited, without tags or fusion partners. Where a name states a change or a piece, a line headed by the entry shows the natural chain unless it says otherwise. A line that says so, or that is headed by a name, gives the form on record, which may keep a tag or linker.
UniProt P05556: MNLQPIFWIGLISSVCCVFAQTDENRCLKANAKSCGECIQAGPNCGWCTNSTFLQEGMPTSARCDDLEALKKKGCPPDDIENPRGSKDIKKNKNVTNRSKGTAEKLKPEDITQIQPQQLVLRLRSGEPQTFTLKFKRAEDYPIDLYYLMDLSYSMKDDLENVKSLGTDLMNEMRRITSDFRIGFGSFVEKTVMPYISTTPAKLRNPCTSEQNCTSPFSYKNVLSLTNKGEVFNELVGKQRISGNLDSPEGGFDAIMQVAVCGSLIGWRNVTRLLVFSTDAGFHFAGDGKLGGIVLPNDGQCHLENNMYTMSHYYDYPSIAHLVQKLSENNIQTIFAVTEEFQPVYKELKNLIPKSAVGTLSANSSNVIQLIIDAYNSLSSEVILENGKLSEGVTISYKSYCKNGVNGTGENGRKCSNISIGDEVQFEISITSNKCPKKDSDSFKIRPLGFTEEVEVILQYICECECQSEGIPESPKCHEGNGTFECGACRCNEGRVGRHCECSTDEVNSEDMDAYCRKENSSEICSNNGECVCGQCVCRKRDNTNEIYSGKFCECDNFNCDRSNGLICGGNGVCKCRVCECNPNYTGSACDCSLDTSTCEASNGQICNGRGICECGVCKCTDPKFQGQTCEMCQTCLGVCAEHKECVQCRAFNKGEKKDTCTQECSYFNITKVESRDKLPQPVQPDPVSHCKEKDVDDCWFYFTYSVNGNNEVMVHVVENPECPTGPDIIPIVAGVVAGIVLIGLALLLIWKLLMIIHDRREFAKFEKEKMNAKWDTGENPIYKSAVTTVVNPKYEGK
recombinant soluble basigin (rsBSG), corresponding to the ADAM12-generated basigin ectodomain (P35613-2, form named): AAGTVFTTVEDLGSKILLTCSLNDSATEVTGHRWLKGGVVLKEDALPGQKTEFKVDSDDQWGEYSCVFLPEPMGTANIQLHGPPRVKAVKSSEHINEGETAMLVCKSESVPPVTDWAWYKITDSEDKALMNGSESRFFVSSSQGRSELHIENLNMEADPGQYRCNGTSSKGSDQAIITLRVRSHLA

Columns and labels:
[1] = molecular target: β1 integrin (human (endogenous in HT1080)) (UniProt P05556); assay: co-IP; HT1080 WT cells treated with purified rsBSG before lysis (RIPA buffer); β1 integrin immunoprecipitated with AIIB2 antibody, co-precipitated rsBSG detected by western blot with anti-strep-tag antibody; control rat IgG as negative control; only the binder purified
[2] = molecular target: recombinant soluble basigin (rsBSG), corresponding to the ADAM12-generated basigin ectodomain (human) (UniProt P35613); assay: co-IP; HT1080 WT cells treated with purified rsBSG before lysis (RIPA buffer); rsBSG immunoprecipitated with strep-tag antibody, co-precipitated β1 integrin detected by western blot with AIIB2 antibody; control rat IgG as negative control; only the target purified

binding [1]	binding [2]	Substance
binds		recombinant soluble basigin (rsBSG), corresponding to the ADAM12-generated basigin ectodomain (from UniProt P35613-2 22-207) (domain or fragment)
	binds	β1 integrin (from UniProt P05556 21-798) (receptor)
